From article PMC8880767 come the findings set out here.

Sequences of proteins named here, by UniProt entry; tags and fusion partners are left off. A change or cut given only in a name is not applied to a line headed by its entry.
UniProt P39938: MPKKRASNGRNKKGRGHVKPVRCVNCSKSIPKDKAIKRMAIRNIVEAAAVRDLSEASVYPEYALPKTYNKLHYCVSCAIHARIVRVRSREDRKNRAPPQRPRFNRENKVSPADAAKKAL

No constants are given. Whether binding was seen depends on the method and setting. Binding seen in cells or lysates may run through a third protein. A result given as binding can be weak or reduced; the word gives no strength.

The target of this experiment is T1, Rps3-TAP (Rps3–CBP–protein A) (S. cerevisiae) (UniProt P05750).
T1 sequence: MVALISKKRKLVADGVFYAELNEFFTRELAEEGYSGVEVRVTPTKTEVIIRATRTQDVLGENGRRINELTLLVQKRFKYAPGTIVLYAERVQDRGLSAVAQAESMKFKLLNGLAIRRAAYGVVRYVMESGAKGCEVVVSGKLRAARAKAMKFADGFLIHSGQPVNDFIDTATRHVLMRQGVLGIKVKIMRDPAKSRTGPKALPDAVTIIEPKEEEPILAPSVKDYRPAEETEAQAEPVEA
Briefly: pull-down; Rps3-TAP (preexisting) ribosomes from yeast lysate on IgG sepharose, ~2 h 4°C; washed with 50 mM tris pH 7.5, 100 mM NaCl, 10 mM MgCl2, 0.075% NP-40; eluted with TEV protease; Western blot; cells with or without 1 M NaCl or 1 M sorbitol, or after 1 h recovery. For orientation: Immunoblotting shows a protein as a band on a membrane.

On to “Rps26 (untagged, endogenous yeast protein) (from UniProt P39938)”, for which the binding entry is on record as “binds”.
